PubChem BioAssay AID1259263 – Sanger Institute – 2017
Assay: 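Recheck kinase screen hits for synergy with three targeted cancer drugs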 (follow-up of hits). System: SW1463 human colorectal cancer cell line. Knock-down reagent: single siRNA against human genes. Challenge: anchor drugs BYL719 at 1 µM, cetuximab at 5 µg/ml or trametinib at 10 nM, or DMSO vehicle, added one day after siRNA transfection. Measurement: 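Viability relative to a non-targeting siRNA control, averaged over replicates, plus a synergy score contrasting measured with expected viability loss for knock-down and drug combined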. Direction: synergy score with trametinib and synergy score with BYL719 and synergy score with cetuximab: higher = stronger synthetic lethal effect with the drug. Active means: 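Called active if the synergy score is above 0.10 for one or more of the three anchor drugs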. Calls: active = synergy with at least one drug; inactive = no synergy with any drug.
The deposit covers 160 reagents; this is a part drawn at random. Of all reagents, 101 (63%) got an active call. 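Drug doses chosen to kill few cells alone; each row is one siRNA, and a gene counts as confirmed only if two or more siRNAs show synergy.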 Reagents against one gene are numbered here. Further read-outs or replicates are left out here. Not given: the amount of reagent, the time to read-out.

Silencing of PIM1 #1 resulted in: synergy score with trametinib 0.34; synergy score with BYL719 = 0.0415; synergy score with cetuximab 0.0366; active.
PIM1 #2 gave synergy score with trametinib 0.189; synergy score with BYL719 = 0.106; synergy score with cetuximab 0.0874; active.
PIM1 #3 gave synergy score with trametinib 0.0353; synergy score with BYL719 = -0.0704; synergy score with cetuximab -0.00937; inactive.
PIM1 #4 gave synergy score with trametinib 0.207; synergy score with BYL719 = 0.121; synergy score with cetuximab 0.104; active.
After knock-down of PFKFB3 #1, the screen gave synergy score with trametinib 0.0741; synergy score with BYL719 = -0.12; synergy score with cetuximab 0.0891; inactive.
For PFKFB3 #2, the entry reads synergy score with trametinib 0.149; synergy score with BYL719 = -0.0226; synergy score with cetuximab 0.0498; active.
With knock-down of PFKFB3 #3, the record shows synergy score with trametinib 0.184; synergy score with BYL719 = -0.0678; synergy score with cetuximab -0.102; active.
After knock-down of PFKFB3 #4 the results were synergy score with trametinib 0.0951; synergy score with BYL719 = -0.097; synergy score with cetuximab -0.108; inactive.
PIK3CA #1 showed synergy score with trametinib 0.0342; synergy score with BYL719 = 0.131; synergy score with cetuximab -0.0927.
With knock-down of PIK3CA #2 the results were synergy score with trametinib 0.0887; synergy score with BYL719 = 0.159; synergy score with cetuximab 0.0913.
Silencing of PIK3CA #3 gave: synergy score with trametinib 0.232; synergy score with BYL719 = 0.0511; synergy score with cetuximab 0.0871; active.
After knock-down of PIK3CA #4 the results were synergy score with trametinib 0.0575; synergy score with BYL719 = -0.00837; synergy score with cetuximab -0.175; inactive.
